The results in this text go back to patent US10072023B2, “Diarylethene compounds and uses thereof” (SWITCH MATERIALS, INC., priority 2011, dated 2018).

This series in a line: Electrochemical switching (Switch: reversible photochromic/electrochromic conversion). The series is classed as physicochemical. Set-up: key: Y: “Switch” refers to the ability (yes or no) of the compound to be reversibly converted under photochromic and electrochromic conditions between a ring-open isomer and ring-closed isomer. The conditions noted are these: reversibly converted under photochromic and electrochromic conditions.
As for `Cc1cc(-c2cc(C3=C(c4cc(-c5cc(C)c(C)s5)sc4-c4cc(C)c(C)s4)C(F)(F)C(F)(F)C3(F)F)c(-c3cc(C)c(C)s3)s2)sc1C` [S011], the Switch result was “Y”.

`COc1ccc(-c2cc(C3=C(c4cc(-c5ccc(OC)s5)sc4-c4ccc(OC)s4)C(F)(F)C(F)(F)C3(F)F)c(-c3ccc(OC)s3)s2)s1` [S020, 3′,3″″-(perfluorocyclopent-1-ene-1,2-diyl)bis(5,5″-dimethoxy-2,2′:5′,2″-terthiophene)]: the Switch entry is “Y”.

On to `CC(C)(C)c1ccc(-c2cc(C3=C(c4cc(-c5ccc(C(C)(C)C)s5)sc4-c4cccs4)C(F)(F)C(F)(F)C3(F)F)c(-c3cccs3)s2)s1` [S170, 4,4′-(perfluorocyclopent-1-ene-1,2-diyl)bis(5′-tert-butyl-5-(thiopheyl)-2,2′-bithiophene)], for which the Switch entry is listed as “Y”.

On to `COCCC[Si](CCCOC)(CCCOC)c1ccc(-c2sc(-c3ccc(C(C)(C)C)s3)cc2C2=C(c3cc(-c4ccc(C(C)(C)C)s4)sc3-c3ccc([Si](CCCOC)(CCCOC)CCCOC)s3)C(F)(F)C(F)(F)C2(F)F)s1` [S158], for which the Switch result is given as “Y”.

As for `Cc1ccc(-c2cc(C3=C(c4cc(-c5ccc(C)s5)sc4-c4ccc(C)s4)C(F)(F)C(F)(F)C3(F)F)c(-c3ccc(C)s3)s2)s1` [S007, 3′,3″″-(perfluorocyclopent-1-ene-1,2-diyl)bis(5,5″-dimethyl-2,2′:5′,2″-terthiophene)], the Switch entry is “Y”.

As to `CC(C)(C)COc1ccc(-c2cc(C3=C(c4cc(-c5ccc(OCC(C)(C)C)cc5)sc4-c4ccc(OCC(C)(C)C)cc4)C(F)(F)C(F)(F)C3(F)F)c(-c3ccc(OCC(C)(C)C)cc3)s2)cc1` [S095, 3,3′-(perfluorocyclopent-1-ene-1,2-diyl)bis(2,5-bis(4-(neopentyloxy)phenyl)thiophene)], the Switch entry is given as “Y”.

Regarding `O=C(O)c1ccc(-c2cc(C3=C(c4cc(-c5ccc(C(=O)O)s5)sc4-c4ccc(C(=O)O)s4)C(F)(F)C(F)(F)C3(F)F)c(-c3ccc(C(=O)O)s3)s2)s1` [S024], the Switch result was “Y”.

Take `CC(C)(C)c1ccc(-c2cc(C3=C(c4cc(-c5ccc(C(C)(C)C)s5)sc4-c4ccc(OCCCCC#N)cc4)C(F)(F)C(F)(F)C3(F)F)c(-c3ccc(OCCCCC#N)cc3)s2)s1` [S139, 5,5′-(((4,4″-(perfluorocyclopent-1-ene-1,2-diyl)bis(5′-(tert-butyl)-[2″,2″′-bithiophene]-5″,4-diyl))bis(4,1phenylene))bis(oxy))dipentanenitrile]: the Switch entry is recorded as “Y”.

Regarding `CC(C)(C)c1ccc(-c2oc3cc4c(cc3c2C2=C(c3c(-c5ccc(C(C)(C)C)cc5)oc5cc6c(cc35)OCO6)C(F)(F)C(F)(F)C2(F)F)OCO4)cc1` [S163, 7,7′-(perfluorocyclopent-1-ene-1,2-diyl)bis(6-(4-(tert-butyl)phenyl)-[1,3]dioxolo[4,5-f]benzofuran)], the Switch result is reported as “Y”.

`COCCOCCOCCOc1ccc(-c2sc(-c3ccc(C(C)(C)C)s3)cc2C2=C(c3cc(-c4ccc(C(C)(C)C)s4)sc3-c3ccc(OCCOCCOCCOC)cc3)C(F)(F)C(F)(F)C2(F)F)cc1` [S108]: the Switch result is listed as “Y”.

For `FC(F)(F)c1ccc(-c2cc(C3=C(c4cc(-c5ccc(C(F)(F)F)cc5)sc4-c4ccc(C(F)(F)F)cc4)C(F)(F)C(F)(F)C3(F)F)c(-c3ccc(C(F)(F)F)cc3)s2)cc1` [S044, 3,3′-(perfluorocyclopent-1-ene-1,2-diyl)bis(2,5-bis(4-(trifluoromethyl)phenyl)thiophene)], the Switch result was “Y”.

As for `c1ccc(-c2nc(-c3cc(-c4cccs4)sc3-c3cccs3)c(-c3cc(-c4cccs4)sc3-c3cccs3)s2)cc1` [S075], the Switch entry is on record as “Y”.

For `COc1ccc(-c2cc(C3=C(c4cc(-c5ccc(C#N)cc5)sc4-c4ccc(OC)cc4)C(F)(F)C(F)(F)C3(F)F)c(-c3ccc(C#N)cc3)s2)cc1` [S087, 4-(3-(2-(5-(4-cyanophenyl)-2-(4-methoxyphenyl)thiophen-3-yl)-3,3,4,4,5,5-hexafluorocyclopent-1-en-1-yl)-5-(4-methoxyphenyl)thiophen-2-yl)benzonitrile], the Switch result is recorded as “Y”.

In the case of `CC(C)CCOc1ccc(-c2cc(C3=C(c4cc(-c5ccc(OCCC(C)C)cc5)sc4-c4ccc(OCCC(C)C)cc4)C(F)(F)C(F)(F)C3(F)F)c(-c3ccc(OCCC(C)C)cc3)s2)cc1` [S094, 3,3′-(perfluorocyclopent-1-ene-1,2-diyl)bis(2,5-bis(4-(isopentyloxy)phenyl)thiophene)], the Switch entry was “Y”.

With `CC(C)(C)c1ccc(-c2cc(C3=C(c4cc(-c5sc(C(C)(C)C)cc5C(=O)O)sc4-c4ccc(C(=O)O)s4)C(F)(F)C(F)(F)C3(F)F)c(-c3ccc(C(=O)O)s3)s2)s1` [S124], the Switch entry is given as “Y”.

With `CC(C)(C)c1ccc(-c2oc3cc(O)ccc3c2C2=C(c3c(-c4ccc(C(C)(C)C)cc4)oc4cc(O)ccc34)C(F)(F)C(F)(F)C2(F)F)cc1` [S162, 3,3′-(perfluorocyclopent-1-ene-1,2-diyl)bis(2-(4-(tert-butyl)phenyl)benzofuran-6-ol)], the Switch result is “Y”.

As to `COc1ccc(-c2oc3cc(OC)ccc3c2C2=C(c3c(-c4ccc(OC)cc4)oc4cc(OC)ccc34)C(F)(F)C(F)(F)C2(F)F)cc1` [S140, 3,3′-(perfluorocyclopent-1-ene-1,2-diyl)bis(6-methoxy-2-(4-methoxyphenyl)benzofuran)], the Switch entry is reported as “Y”.

For `N#Cc1ccc(-c2cc(C3=C(c4cc(-c5ccc(C#N)cc5)sc4-c4ccc(C#N)cc4)C(F)(F)C(F)(F)C3(F)F)c(-c3ccc(C#N)cc3)s2)cc1` [S074, 3,3′-(perfluorocyclopent-1-ene-1,2-diyl)bis(2,5-bis(4-cyanophenyl)thiophene)], the Switch result is given as “Y”.

As for `CC(C)(C)c1ccc(-c2cc(C3=C(c4cc(-c5ccc(C(C)(C)C)s5)sc4-c4ccc(O[Si](O[Si](C)(C)C)(O[Si](C)(C)C)O[Si](C)(C)C)cc4)C(F)(F)C(F)(F)C3(F)F)c(-c3ccc(O[Si](O[Si](C)(C)C)(O[Si](C)(C)C)O[Si](C)(C)C)cc3)s2)s1` [S118], the Switch result is recorded as “Y”.

Take `FC1(F)C(c2cc(-c3ccc(Cl)s3)sc2-c2ccc(Cl)s2)=C(c2cc(-c3ccc(Cl)s3)sc2-c2ccc(Cl)s2)C(F)(F)C1(F)F` [S026, 3′,3″″-(perfluorocyclopent-1-ene-1,2-diyl)bis(5,5″-dichloro-2,2′:5′,2″-terthiophene)]: the Switch result was “Y”.

In the case of `Oc1ccc(-c2cc(C3=C(c4cc(-c5ccc(O)cc5)sc4-c4ccc(O)cc4)C(F)(F)C(F)(F)C3(F)F)c(-c3ccc(O)cc3)s2)cc1` [S084, 3,3′-(perfluorocyclopent-1-ene-1,2-diyl)bis(2,5-bis(4-hydroxyphenyl)thiophene)], the Switch result was “Y”.

Take `FC1(F)C(c2cc(-c3ccccc3)sc2-c2ccccc2)=C(c2cc(-c3ccc(Cl)cc3)sc2-c2ccccc2)C(F)(F)C1(F)F` [S006, 5-(4-chlorophenyl)-3-(2-(2,5-diphenylthiophen-3-yl)-3,3,4,4,5,5-hexafluorocyclopent-1-en-1-yl)-2-phenylthiophene]: the Switch entry was “Y”.

Turning to `FC1(F)C(c2cc(-c3ccc(/C=C/c4ccccc4)s3)sc2-c2cccs2)=C(c2cc(-c3ccc(/C=C/c4ccccc4)s3)sc2-c2cccs2)C(F)(F)C1(F)F` [S038, (E)-4′,4″″-(perfluorocyclopent-1-ene-1,2-diyl)bis(5-((E)-styryl)-2,2′:5′,2″-terthiophene)], the Switch entry was “Y”.

Consider `CC(C)(C)c1ccc(-c2sc(-c3ccc(C4(C)OCCO4)cc3)cc2C2=C(c3cc(-c4ccc(C5(C)OCCO5)cc4)sc3-c3ccc(C(C)(C)C)cc3)C(F)(F)C(F)(F)C2(F)F)cc1` [S066, 2,2′-((4,4′-(perfluorocyclopent-1-ene-1,2-diyl)bis(5-(4-(tert-butyl)phenyl)thiophene-4,2-diyl))bis(4,1-phenylene))bis(2-methyl-1,3-dioxolane)], for which the Switch entry is on record as “Y”.

As for `Cc1csc(-c2cc(C3=C(c4cc(-c5cc(C)cs5)sc4-c4cc(C)cs4)C(F)(F)C(F)(F)C3(F)F)c(-c3cc(C)cs3)s2)c1` [S149, 3′,3″″-(perfluorocyclopent-1-ene-1,2-diyl)bis(4,4″-dimethyl-2,2′:5′,2″-terthiophene)], the Switch result is “Y”.

Take `c1ccc(-c2cc(-c3nc(-c4ccccc4)sc3-c3cc(-c4ccccc4)sc3-c3ccccc3)c(-c3ccccc3)s2)cc1` [S055, 4,5-bis(2,5-diphenylthiophen-3-yl)-2-phenylthiazole]: the Switch result was “Y”.

For the compound `c1ccc(-c2nc(-c3nc(-c4ccccc4)sc3-c3nc(-c4ccccc4)sc3-c3ccccc3)c(-c3ccccc3)s2)cc1` [S032, 2,2′,2″,5,5″-pentaphenyl-4,4′:5′,4″-terthiazole], the Switch result is given as “Y”.

Take `CC(C)Oc1ccc(-c2cc(C3=C(c4cc(-c5ccc(OC(C)C)cc5)sc4-c4ccc(OC(C)C)cc4)C(F)(F)C(F)(F)C3(F)F)c(-c3ccc(OC(C)C)cc3)s2)cc1` [S092, 3,3′-(perfluorocyclopent-1-ene-1,2-diyl)bis(2,5-bis(4-isopropoxyphenyl)thiophene)]: the Switch entry is “Y”.

With `COCCC[Si](CCCOC)(CCCOC)c1ccc(-c2cc(C3=C(c4cc(-c5ccc([Si](CCCOC)(CCCOC)CCCOC)s5)sc4-c4ccc([Si](CCCOC)(CCCOC)CCCOC)s4)C(F)(F)C(F)(F)C3(F)F)c(-c3ccc([Si](CCCOC)(CCCOC)CCCOC)s3)s2)s1` [S138], the Switch result is reported as “Y”.

As for `C[Si](C)(C)c1ccc(-c2cc(C3=C(c4cc(-c5ccc([Si](C)(C)C)s5)sc4-c4ccc([Si](C)(C)C)s4)C(F)(F)C(F)(F)C3(F)F)c(-c3ccc([Si](C)(C)C)s3)s2)s1` [S135, 3′,3″″-(perfluorocyclopent-1-ene-1,2-diyl)bis(5,5″-bis(trimethylsilyl)-2,2′:5′,2″-terthiophene)], the Switch result is “Y”.

Take `COc1cccc(-c2cc(C3=C(c4cc(-c5cccc(OC)c5)sc4-c4cccc(OC)c4)C(F)(F)C(F)(F)C3(F)F)c(-c3cccc(OC)c3)s2)c1` [S096, 3,3′-(perfluorocyclopent-1-ene-1,2-diyl)bis(2,5-bis(3-methoxyphenyl)thiophene)]: the Switch result is listed as “Y”.

Turning to `FC1(F)C(c2c(-c3ccccc3)sc3ccccc23)=C(c2c(-c3ccccc3)sc3ccccc23)C(F)(F)C1(F)F` [S014, 3,3′-(perfluorocyclopent-1-ene-1,2-diyl)bis(2-phenylbenzo[b]thiophene)], the Switch result was “Y”.
